This test deals with T1, Flag-Radil, full length (human) (UniProt Q96JH8).
T1 sequence: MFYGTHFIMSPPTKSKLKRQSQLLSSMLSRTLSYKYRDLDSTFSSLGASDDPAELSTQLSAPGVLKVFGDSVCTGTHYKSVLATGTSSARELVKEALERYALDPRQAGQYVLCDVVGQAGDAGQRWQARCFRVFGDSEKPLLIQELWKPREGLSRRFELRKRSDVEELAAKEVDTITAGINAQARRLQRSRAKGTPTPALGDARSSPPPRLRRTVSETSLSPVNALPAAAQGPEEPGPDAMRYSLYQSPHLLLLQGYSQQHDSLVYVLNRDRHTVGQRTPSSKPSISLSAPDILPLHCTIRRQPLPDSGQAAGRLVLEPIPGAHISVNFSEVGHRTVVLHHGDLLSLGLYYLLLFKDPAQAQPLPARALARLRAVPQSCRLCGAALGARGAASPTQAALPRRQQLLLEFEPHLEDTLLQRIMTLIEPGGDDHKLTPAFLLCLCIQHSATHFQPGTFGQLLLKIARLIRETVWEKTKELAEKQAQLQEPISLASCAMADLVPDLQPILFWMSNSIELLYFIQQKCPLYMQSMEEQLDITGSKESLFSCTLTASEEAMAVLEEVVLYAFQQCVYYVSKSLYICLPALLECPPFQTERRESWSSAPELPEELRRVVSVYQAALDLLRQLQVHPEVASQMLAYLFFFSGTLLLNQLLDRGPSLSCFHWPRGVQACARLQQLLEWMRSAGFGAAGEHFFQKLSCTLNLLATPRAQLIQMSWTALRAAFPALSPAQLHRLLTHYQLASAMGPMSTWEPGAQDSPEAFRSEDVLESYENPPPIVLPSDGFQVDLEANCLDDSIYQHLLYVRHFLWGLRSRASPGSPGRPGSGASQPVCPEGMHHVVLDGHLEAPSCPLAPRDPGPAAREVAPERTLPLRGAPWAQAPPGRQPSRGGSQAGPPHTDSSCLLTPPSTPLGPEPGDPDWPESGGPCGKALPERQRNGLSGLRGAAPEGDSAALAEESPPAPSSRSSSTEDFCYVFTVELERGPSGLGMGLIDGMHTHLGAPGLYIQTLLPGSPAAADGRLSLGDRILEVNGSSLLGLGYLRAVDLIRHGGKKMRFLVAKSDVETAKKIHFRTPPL
As to the kind of experiment: co-IP; HEK293T transfected for 24 h; lysis in TBSN buffer (20 mM Tris-Cl pH 8.0, 150 mM NaCl, 0.5% NP-40, 5 mM EGTA, 1.5 mM EDTA); 1 mg cleared lysate on Flag M2 agarose, 1 h at 4 °C; immunoblotting. (In western blotting, separated proteins are transferred to a membrane and probed.)

The text below walks through data of publication PMC7949112.

Results are given in words; binding and its absence hold for the method and conditions named. Binding seen in cells or lysates may run through a third protein. Binding calls can cover weak binding; strength is not graded here. Tags and fused reporters may be left off the sequences shown.

“Rap1 (endogenous) (human (endogenous in HEK293T))”: the binding result is reported as “binds”.
